Results taken from article PMC8773821.
Results are given in words; binding and its absence hold for the method and conditions named. Binding seen in cells or lysates may run through a third protein. Some binding calls cover weakened binding; strength is not graded here. For some assays here: Sequences can lack the tags named with a protein. Values belong to the binder of their own block, whether it stands above or below them.

The chains behind the UniProt entries cited, without tags or fusion partners.
UniProt P19474: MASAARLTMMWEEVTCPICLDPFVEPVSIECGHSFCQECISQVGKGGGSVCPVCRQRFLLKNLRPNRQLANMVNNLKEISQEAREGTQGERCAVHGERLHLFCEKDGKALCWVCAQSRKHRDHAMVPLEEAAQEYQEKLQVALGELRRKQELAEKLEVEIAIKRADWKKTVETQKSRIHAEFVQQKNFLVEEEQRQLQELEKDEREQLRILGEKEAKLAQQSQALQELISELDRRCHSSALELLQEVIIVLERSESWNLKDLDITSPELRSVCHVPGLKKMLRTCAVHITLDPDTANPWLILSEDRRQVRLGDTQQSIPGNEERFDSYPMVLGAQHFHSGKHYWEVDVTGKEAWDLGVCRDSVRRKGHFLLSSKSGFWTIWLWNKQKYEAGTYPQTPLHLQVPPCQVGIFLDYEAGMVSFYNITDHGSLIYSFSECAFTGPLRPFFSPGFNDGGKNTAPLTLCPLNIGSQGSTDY

Experiments:
[1] = target: T1, pregnane X receptor (PXR), endogenous in HepG2 cells (human (endogenous in HepG2)) (UniProt O75469); assay: co-IP; endogenous proteins in HepG2 lysates; cells treated with kenpaullone (5 uM) or dinaciclib (4 uM) for 24 h or left untreated; precipitated with anti-PXR, anti-Hsp90 or anti-DNAJC7 antibody; blotted with the same three antibodies
T1 sequence: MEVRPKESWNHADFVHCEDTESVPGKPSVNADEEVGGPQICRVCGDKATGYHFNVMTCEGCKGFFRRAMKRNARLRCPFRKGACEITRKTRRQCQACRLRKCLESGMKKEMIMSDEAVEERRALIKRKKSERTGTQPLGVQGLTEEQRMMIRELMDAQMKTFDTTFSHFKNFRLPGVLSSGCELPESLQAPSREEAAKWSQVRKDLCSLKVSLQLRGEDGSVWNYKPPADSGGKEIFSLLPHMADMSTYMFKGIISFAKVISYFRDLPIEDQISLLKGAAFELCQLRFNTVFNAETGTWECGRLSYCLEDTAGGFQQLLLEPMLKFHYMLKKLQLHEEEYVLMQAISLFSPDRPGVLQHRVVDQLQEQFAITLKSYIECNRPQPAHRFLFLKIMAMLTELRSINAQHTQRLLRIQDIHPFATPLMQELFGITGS

[2] = target: tripartite motif containing 21 (TRIM21), full-length (human) (UniProt P19474); assay: co-IP; HEK 293T cells cotransfected with PXR and TRIM21 for 48 h; whole-cell lysates in RIPA with PMSF; precipitated on agarose beads with anti-Flag (the legend says PXR antibody), anti-TRIM21 or IgG; blotted with anti-PXR or anti-TRIM21

binding [1]: binds
B1: cytoplasmic CAR retention protein (DNAJC7), endogenous in HepG2 cells (protein, UniProt Q99615 1-494)
chain: MAAAAECDVVMAATEPELLDDQEAKREAETFKEQGNAYYAKKDYNEAYNYYTKAIDMCPKNASYYGNRAATLMMLGRFREALGDAQQSVRLDDSFVRGHLREGKCHLSLGNAMAACRSFQRALELDHKNAQAQQEFKNANAVMEYEKIAETDFEKRDFRKVVFCMDRALEFAPACHRFKILKAECLAMLGRYPEAQSVASDILRMDSTNADALYVRGLCLYYEDCIEKAVQFFVQALRMAPDHEKACIACRNAKALKAKKEDGNKAFKEGNYKLAYELYTEALGIDPNNIKTNAKLYCNRGTVNSKLRKLDDAIEDCTNAVKLDDTYIKAYLRRAQCYMDTEQYEEAVRDYEKVYQTEKTKEHKQLLKNAQLELKKSKRKDYYKILGVDKNASEDEIKKAYRKRALMHHPDRHSGASAEVQKEEEKKFKEVGEAFTILSDPKKKTRYDSGQDLDEEGMNMGDFDPNNIFKAFFGGPGGFSFEASGPGNFFFQFG

binding [2]: binds
B2: pregnane X receptor (PXR), full-length, from the plasmid pcDNA3.1-EGFP-PXR-Flag (protein, UniProt O75469 1-434)
chain: T1 sequence
